Results from the supplement of paper PMC6411743.
± gives the standard deviation of the averaged measurements. The list shows a part of the results, in another mix than the full data. Small differences around the control level are noise.

The chains behind the UniProt entries cited, without tags or fusion partners. Where a name states a change or a piece, a line headed by the entry shows the natural chain unless it says otherwise.
UniProt Q9NWZ3, whole entry: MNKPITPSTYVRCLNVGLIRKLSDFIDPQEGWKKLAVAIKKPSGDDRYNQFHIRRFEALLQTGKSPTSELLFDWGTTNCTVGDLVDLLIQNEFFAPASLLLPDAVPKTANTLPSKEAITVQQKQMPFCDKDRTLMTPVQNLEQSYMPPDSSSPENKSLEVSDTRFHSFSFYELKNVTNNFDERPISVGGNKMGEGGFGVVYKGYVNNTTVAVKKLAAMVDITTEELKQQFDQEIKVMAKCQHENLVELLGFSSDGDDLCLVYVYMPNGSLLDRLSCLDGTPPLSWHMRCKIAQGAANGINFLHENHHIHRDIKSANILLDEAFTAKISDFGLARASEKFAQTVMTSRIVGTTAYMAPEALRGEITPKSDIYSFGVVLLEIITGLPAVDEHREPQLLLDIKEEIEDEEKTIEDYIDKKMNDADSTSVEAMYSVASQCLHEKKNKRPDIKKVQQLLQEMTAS
UniProt Q9NR09, whole entry: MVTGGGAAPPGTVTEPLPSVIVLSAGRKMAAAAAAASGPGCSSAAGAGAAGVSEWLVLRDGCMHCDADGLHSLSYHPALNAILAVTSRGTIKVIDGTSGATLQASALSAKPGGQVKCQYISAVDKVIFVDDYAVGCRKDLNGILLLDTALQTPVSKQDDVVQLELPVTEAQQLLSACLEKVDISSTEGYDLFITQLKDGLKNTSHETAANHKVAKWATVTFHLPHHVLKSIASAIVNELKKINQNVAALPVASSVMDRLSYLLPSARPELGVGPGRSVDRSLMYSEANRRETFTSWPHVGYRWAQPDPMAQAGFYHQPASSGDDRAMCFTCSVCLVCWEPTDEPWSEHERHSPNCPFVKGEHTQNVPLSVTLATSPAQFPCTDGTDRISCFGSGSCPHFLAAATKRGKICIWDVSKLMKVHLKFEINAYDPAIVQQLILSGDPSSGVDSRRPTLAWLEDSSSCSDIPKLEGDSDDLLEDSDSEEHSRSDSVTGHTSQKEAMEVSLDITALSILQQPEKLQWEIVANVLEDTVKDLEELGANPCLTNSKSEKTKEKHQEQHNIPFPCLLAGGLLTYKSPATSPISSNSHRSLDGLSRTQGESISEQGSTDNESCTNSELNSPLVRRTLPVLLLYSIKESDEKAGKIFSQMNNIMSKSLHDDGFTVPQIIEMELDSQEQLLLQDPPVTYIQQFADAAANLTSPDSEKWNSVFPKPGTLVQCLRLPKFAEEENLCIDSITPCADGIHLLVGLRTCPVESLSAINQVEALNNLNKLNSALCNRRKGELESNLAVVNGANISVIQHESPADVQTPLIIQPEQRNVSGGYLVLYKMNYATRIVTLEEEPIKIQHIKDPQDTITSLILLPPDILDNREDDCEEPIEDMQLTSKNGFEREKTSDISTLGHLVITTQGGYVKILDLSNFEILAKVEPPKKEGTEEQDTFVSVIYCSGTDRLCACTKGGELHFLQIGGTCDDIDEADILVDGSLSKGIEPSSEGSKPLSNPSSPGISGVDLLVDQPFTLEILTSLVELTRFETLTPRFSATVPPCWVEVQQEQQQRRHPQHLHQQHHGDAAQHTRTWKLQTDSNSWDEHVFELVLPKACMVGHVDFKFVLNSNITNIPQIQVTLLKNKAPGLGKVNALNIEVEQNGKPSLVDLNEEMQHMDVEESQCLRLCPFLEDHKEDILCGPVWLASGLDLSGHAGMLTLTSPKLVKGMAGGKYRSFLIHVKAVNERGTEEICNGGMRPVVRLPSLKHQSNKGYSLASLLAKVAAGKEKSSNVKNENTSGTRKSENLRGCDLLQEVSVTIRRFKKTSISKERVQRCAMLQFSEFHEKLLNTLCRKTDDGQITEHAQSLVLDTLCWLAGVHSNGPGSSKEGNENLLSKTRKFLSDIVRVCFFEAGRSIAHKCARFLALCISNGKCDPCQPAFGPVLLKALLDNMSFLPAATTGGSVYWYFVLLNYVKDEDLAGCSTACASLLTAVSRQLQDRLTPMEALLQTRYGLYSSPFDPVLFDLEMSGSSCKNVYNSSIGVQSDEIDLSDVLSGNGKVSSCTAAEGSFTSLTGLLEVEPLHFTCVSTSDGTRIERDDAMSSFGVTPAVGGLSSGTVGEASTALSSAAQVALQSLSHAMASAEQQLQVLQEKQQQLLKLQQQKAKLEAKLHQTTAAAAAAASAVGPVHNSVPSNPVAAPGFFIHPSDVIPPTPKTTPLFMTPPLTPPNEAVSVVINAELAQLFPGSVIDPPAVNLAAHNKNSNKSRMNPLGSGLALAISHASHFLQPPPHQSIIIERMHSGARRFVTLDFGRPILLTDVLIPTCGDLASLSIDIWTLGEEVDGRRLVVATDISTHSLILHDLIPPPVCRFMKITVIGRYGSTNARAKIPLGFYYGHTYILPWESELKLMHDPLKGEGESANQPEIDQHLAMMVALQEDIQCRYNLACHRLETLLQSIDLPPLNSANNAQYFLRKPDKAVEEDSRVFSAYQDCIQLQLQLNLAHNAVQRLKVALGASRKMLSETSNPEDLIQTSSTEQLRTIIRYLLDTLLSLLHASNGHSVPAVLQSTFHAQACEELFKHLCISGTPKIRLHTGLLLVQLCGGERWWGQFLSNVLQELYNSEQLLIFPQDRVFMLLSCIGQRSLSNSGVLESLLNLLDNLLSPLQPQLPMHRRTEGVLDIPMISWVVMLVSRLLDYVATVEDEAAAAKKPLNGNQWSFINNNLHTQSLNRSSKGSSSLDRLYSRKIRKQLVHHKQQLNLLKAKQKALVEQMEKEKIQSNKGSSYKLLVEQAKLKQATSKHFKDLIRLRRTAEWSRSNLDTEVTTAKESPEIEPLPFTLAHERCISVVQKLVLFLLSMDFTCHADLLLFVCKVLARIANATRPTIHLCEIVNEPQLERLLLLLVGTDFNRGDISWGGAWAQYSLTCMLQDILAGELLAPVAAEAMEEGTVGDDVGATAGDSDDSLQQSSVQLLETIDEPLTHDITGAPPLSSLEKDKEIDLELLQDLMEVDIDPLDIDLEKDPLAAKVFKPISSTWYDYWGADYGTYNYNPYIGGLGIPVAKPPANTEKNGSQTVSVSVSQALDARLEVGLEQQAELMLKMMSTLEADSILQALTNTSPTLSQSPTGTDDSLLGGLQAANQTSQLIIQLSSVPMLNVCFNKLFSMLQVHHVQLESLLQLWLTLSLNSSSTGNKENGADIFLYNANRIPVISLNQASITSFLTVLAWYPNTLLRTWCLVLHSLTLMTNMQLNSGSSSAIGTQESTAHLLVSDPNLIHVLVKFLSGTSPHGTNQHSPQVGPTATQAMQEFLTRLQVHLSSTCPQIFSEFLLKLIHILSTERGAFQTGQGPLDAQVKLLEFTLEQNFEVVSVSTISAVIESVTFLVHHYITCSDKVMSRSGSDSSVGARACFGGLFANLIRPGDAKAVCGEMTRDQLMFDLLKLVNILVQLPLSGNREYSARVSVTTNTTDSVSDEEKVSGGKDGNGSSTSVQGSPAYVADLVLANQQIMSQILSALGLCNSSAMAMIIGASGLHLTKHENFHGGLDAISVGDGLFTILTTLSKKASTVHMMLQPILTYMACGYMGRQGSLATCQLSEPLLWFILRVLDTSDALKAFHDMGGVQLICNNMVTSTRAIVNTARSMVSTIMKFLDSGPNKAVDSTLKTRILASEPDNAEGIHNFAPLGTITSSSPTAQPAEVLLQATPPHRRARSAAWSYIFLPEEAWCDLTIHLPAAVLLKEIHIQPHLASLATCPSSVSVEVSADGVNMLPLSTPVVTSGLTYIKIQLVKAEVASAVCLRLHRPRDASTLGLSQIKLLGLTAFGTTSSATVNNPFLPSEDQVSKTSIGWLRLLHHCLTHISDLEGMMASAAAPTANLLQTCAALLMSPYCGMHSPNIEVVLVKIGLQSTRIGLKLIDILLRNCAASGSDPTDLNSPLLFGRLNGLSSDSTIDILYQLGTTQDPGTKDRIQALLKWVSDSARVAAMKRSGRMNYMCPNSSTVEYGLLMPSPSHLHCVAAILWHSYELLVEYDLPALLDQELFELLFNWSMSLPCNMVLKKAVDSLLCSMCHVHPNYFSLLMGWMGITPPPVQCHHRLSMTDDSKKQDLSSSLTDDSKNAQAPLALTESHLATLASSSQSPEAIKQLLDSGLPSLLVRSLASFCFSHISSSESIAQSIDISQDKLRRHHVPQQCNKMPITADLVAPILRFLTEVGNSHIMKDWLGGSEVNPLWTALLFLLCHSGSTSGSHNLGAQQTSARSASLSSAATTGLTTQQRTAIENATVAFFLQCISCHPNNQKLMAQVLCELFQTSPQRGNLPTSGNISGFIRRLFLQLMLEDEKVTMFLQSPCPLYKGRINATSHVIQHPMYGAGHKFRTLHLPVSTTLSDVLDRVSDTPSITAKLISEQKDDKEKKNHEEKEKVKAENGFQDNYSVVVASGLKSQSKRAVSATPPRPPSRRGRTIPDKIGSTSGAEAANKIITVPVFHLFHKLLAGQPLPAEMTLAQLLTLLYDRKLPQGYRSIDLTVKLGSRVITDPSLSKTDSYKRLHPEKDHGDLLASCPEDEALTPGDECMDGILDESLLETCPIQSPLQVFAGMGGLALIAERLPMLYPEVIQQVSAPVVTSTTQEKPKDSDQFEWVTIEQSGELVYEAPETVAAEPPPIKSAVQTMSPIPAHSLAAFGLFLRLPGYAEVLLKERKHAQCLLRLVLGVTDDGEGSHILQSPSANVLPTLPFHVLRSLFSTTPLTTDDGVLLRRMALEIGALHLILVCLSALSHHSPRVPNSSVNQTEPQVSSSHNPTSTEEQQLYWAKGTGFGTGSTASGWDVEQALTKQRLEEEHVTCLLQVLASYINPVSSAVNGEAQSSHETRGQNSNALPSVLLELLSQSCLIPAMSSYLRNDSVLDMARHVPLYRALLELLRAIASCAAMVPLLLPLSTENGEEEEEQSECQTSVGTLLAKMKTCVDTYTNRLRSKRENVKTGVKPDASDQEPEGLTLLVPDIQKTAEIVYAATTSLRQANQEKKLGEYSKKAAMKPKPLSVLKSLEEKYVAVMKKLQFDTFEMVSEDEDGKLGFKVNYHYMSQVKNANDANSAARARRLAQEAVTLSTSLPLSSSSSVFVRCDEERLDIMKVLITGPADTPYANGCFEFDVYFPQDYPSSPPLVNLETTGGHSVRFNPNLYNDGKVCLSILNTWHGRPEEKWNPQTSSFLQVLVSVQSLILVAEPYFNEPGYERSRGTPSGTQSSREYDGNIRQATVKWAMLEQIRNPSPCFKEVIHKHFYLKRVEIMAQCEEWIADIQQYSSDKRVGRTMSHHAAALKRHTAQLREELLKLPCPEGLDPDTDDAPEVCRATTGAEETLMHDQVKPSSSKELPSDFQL
UniProt Q9NWB6: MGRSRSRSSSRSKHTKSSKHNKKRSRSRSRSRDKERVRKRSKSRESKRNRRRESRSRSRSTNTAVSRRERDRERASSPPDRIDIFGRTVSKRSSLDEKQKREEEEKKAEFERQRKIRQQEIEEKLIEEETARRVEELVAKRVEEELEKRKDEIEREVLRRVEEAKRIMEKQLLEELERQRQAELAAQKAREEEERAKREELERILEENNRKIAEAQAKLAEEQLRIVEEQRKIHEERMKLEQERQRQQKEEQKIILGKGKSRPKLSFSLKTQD
UniProt Q9NUW8, whole entry: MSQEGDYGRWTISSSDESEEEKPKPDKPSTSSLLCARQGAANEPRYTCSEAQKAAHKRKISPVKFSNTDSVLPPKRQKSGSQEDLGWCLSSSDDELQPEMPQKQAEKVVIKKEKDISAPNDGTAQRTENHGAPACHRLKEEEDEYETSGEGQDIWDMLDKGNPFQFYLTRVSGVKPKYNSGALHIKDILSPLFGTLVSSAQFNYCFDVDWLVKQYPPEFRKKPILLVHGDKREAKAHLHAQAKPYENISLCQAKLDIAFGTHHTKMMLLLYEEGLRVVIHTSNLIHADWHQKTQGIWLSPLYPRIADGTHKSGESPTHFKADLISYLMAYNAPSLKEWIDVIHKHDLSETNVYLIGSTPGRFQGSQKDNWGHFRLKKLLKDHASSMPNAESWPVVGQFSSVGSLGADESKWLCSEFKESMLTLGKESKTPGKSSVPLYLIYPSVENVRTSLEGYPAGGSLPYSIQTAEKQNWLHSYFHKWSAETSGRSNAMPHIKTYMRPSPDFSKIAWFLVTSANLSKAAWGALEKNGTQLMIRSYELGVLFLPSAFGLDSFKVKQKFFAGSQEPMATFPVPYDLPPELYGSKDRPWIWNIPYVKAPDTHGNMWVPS
UniProt Q9NPF2: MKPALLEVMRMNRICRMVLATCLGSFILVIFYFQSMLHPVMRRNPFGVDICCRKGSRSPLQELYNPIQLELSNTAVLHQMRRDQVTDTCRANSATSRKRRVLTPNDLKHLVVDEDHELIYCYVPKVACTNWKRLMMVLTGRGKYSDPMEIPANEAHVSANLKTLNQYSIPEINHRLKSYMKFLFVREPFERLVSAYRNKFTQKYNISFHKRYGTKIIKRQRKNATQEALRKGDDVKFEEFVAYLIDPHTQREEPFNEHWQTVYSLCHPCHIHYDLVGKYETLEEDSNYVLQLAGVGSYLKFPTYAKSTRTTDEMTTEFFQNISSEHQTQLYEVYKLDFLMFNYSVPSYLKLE

Compound: Nc1ncnc2c1ncn2[C@@H]1O[C@H](COP(=O)(O)OP(=O)(O)OP(=O)(O)O)[C@@H](O)[C@H]1O [adenosine triphosphate]
Test: NP40-soluble protein abundance relative to vehicle (solubility fold change) (ratio); higher = more soluble protein in presence of ATP
Summary of the method: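 Jurkat crude lysate (Dounce-homogenised) was treated with eight concentrations from 0.1 to 10 mM for 10 min at room temperature, then 3 min at 37 °C. It was solubilised with 0.8% NP40 and benzonase (60 min, 4 °C) and ultracentrifuged, and the supernatant was TMT-labelled for LC-MS/MS. Intensities were vsn-normalised, and the value is the fold change against the NP40-processed vehicle per replicate, from three independent experiments.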

Target | NP40-soluble protein abundance (concentration: 0.1mM) | NP40-soluble protein abundance (concentration: 0.5mM) | NP40-soluble protein abundance (concentration: 1mM) | NP40-soluble protein abundance (concentration: 2mM) | NP40-soluble protein abundance (concentration: 4mM) | NP40-soluble protein abundance (concentration: 6mM) | NP40-soluble protein abundance (concentration: 8mM) | NP40-soluble protein abundance (concentration: 10mM)
DDX18 (UniProt Q9NVP1) | 1.09 ± 0.028 | 1.2 ± 0.047 | 1.21 ± 0.029 | 1.3 ± 0.024 | 1.503 ± 0.0076 | 1.74 ± 0.035 | 2.07 ± 0.024 | 2.36 ± 0.16
UniProt Q9NYJ8 | 0.912 ± 0.063 | 0.813 ± 0.041 | – | – | – | – | – | –
UniProt Q9NZC7 and related entries | 0.9698 ± 0.0029 | 1.04 ± 0.026 | 1.028 ± 0.01 | 1.04 ± 0.073 | 1.04 ± 0.1 | 1.08 ± 0.13 | 1.06 ± 0.073 | 1.2 ± 0.29
IRAK4 (UniProt Q9NWZ3) | 1.04 ± 0.045 | 1.04 ± 0.057 | 1.02 ± 0.042 | 1.03 ± 0.045 | 1.01 ± 0.051 | 0.985 ± 0.057 | 0.996 ± 0.043 | 0.988 ± 0.047
UniProt Q9NT62 and related entries | 1.02 ± 0.042 | 1 ± 0.048 | – | – | – | – | – | –
BIRC6 (UniProt Q9NR09) | 1.02 ± 0.052 | 1.02 ± 0.06 | 1.05 ± 0.029 | 1.01 ± 0.058 | 0.992 ± 0.031 | 0.99 ± 0.12 | 0.999 ± 0.083 | 0.994 ± 0.088
ARGLU1 (UniProt Q9NWB6) | 1.03 ± 0.043 | 1.45 ± 0.14 | 1.72 ± 0.14 | 1.86 ± 0.18 | 2.03 ± 0.26 | 2.27 ± 0.22 | 2.33 ± 0.28 | 2.44 ± 0.27
TDP1 (UniProt Q9NUW8) | 1.04 ± 0.074 | 1.05 ± 0.087 | 1.02 ± 0.032 | 1.02 ± 0.046 | 0.983 ± 0.063 | 1 ± 0.069 | 0.985 ± 0.049 | 1.01 ± 0.062
LUC7L (UniProt Q9NQ29) | 1.19 ± 0.049 | 2.76 ± 0.18 | 2.7 ± 0.14 | 2.9 ± 0.11 | 2.86 ± 0.17 | 3.28 ± 0.17 | 2.93 ± 0.17 | 3.11 ± 0.15
UniProt Q9NZC3 and related entries | 0.993 ± 0.073 | 0.95 ± 0.039 | – | – | – | – | – | –
AVEN (UniProt Q9NQS1) | 0.849 ± 0.029 | 0.777 ± 0.027 | – | – | – | – | – | –
UniProt Q9NPF2 and related entries | 0.899 ± 0.056 | 0.951 ± 0.034 | – | – | – | – | – | –
UniProt Q9NQW7-3 | 1.04 ± 0.067 | 1.04 ± 0.05 | 1.01 ± 0.044 | 0.994 ± 0.029 | 0.968 ± 0.044 | 0.976 ± 0.052 | 0.991 ± 0.043 | 0.966 ± 0.036
UniProt Q9NVI7-2 | 0.954 ± 0.084 | 1.22 ± 0.13 | 1.54 ± 0.05 | 1.64 ± 0.086 | 1.8 ± 0.086 | 1.89 ± 0.29 | 2.2 ± 0.2 | 2.35 ± 0.26
MRPL16 (UniProt Q9NX20) | 1.08 ± 0.14 | 1.11 ± 0.14 | 1.17 ± 0.12 | 1.08 ± 0.11 | 1.06 ± 0.16 | 1.11 ± 0.38 | 1.08 ± 0.18 | 0.981 ± 0.14

Reformatted tab-delimited: entries from further up
Target	NP40-soluble protein abundance (concentration: 0.1mM)	NP40-soluble protein abundance (concentration: 0.5mM)	NP40-soluble protein abundance (concentration: 1mM)	NP40-soluble protein abundance (concentration: 2mM)	NP40-soluble protein abundance (concentration: 4mM)	NP40-soluble protein abundance (concentration: 6mM)	NP40-soluble protein abundance (concentration: 8mM)	NP40-soluble protein abundance (concentration: 10mM)
UniProt Q9NYJ8	0.912 ± 0.063	0.813 ± 0.041	–	–	–	–	–	–
UniProt Q9NZC7 and related entries	0.9698 ± 0.0029	1.04 ± 0.026	1.028 ± 0.01	1.04 ± 0.073	1.04 ± 0.1	1.08 ± 0.13	1.06 ± 0.073	1.2 ± 0.29
